The supplement of paper PMC10077471
Over roughly 1,900 compounds, “excess over highest single agent (ExcessHSA) synergy score, 6x6 matrix” has its median near -83; the lowest 2% begin near -370. The list shows a part of the results.

What follows are molecules tested on NCI-H446 (assay: excess over highest single agent (ExcessHSA) synergy score, 6x6 matrix; higher = less synergy (more negative = stronger synergy)). Details: 72 h; CellTiter-Glo viability.

In order of falling “excess over highest single agent” value:
1. CN1C(C(=O)Nc2ccccn2)=C(O)c2sccc2S1(=O)=O + Cc1sc2c(c1C)C(c1ccc(Cl)cc1)=N[C@@H](CC(=O)OC(C)(C)C)c1nnc(C)n1-2 [NCGC00250412-19]  313
2. Nc1ccc(S(=O)(=O)Nc2ccnn2-c2ccccc2)cc1 + Cc1sc2c(c1C)C(c1ccc(Cl)cc1)=N[C@@H](CC(=O)OC(C)(C)C)c1nnc(C)n1-2 [NCGC00250412-19]  297
3. C[C@@H](N)c1ccc(C(=O)Nc2ccnc3[nH]ccc23)cc1 + Cc1sc2c(c1C)C(c1ccc(Cl)cc1)=N[C@@H](CC(=O)OC(C)(C)C)c1nnc(C)n1-2 [NCGC00250412-19]  125
4. Cc1[nH]c(=O)c(C#N)cc1-c1ccncc1 + Cc1sc2c(c1C)C(c1ccc(Cl)cc1)=N[C@@H](CC(=O)OC(C)(C)C)c1nnc(C)n1-2 [NCGC00250412-19]  88.7
5. CC(O)(C#Cc1ccc2c(c1)N(c1nc(N)ncc1Cl)CC2)c1nccs1 (centres undefined) + Cc1sc2c(c1C)C(c1ccc(Cl)cc1)=N[C@@H](CC(=O)OC(C)(C)C)c1nnc(C)n1-2 [NCGC00250412-19]  54
6. COc1cc2c(cc1OC)CN(CCc1ccc(NC(=O)c3cc(OC)c(OC)cc3NC(=O)c3cnc4ccccc4c3)cc1)CC2 + Cc1sc2c(c1C)C(c1ccc(Cl)cc1)=N[C@@H](CC(=O)OC(C)(C)C)c1nnc(C)n1-2 [NCGC00250412-19]  50.9
7. OCCNC1CCCc2c1[nH]c1ccc(-c3ccccc3)cc21 (centres undefined) + Cc1sc2c(c1C)C(c1ccc(Cl)cc1)=N[C@@H](CC(=O)OC(C)(C)C)c1nnc(C)n1-2 [NCGC00250412-19]  29.7
8. CCOCC(O)COc1ccc(NC(=O)CC[S+](C)C)cc1 (centres undefined) + Cc1sc2c(c1C)C(c1ccc(Cl)cc1)=N[C@@H](CC(=O)OC(C)(C)C)c1nnc(C)n1-2 [NCGC00250412-19]  23.8
9. N[C@@H]1C[C@H]1c1ccccc1.N[C@H]1C[C@@H]1c1ccccc1 + Cc1sc2c(c1C)C(c1ccc(Cl)cc1)=N[C@@H](CC(=O)OC(C)(C)C)c1nnc(C)n1-2 [NCGC00250412-19]  16.2
10. Cc1ccnc2c1NC(=O)c1cccnc1N2C1CC1 + Cc1sc2c(c1C)C(c1ccc(Cl)cc1)=N[C@@H](CC(=O)OC(C)(C)C)c1nnc(C)n1-2 [NCGC00250412-19]  12.1
11. CC(C)(C)[C@H](NC(=O)c1ccc(N)c(Cl)c1)C(=O)N1CCC[C@H]1C(=O)N[C@H](C#N)CC(=O)O + Cc1sc2c(c1C)C(c1ccc(Cl)cc1)=N[C@@H](CC(=O)OC(C)(C)C)c1nnc(C)n1-2 [NCGC00250412-19]  2.17
12. CCCC(C)(COC(N)=O)COC(=O)NC(C)C (centres undefined) + Cc1sc2c(c1C)C(c1ccc(Cl)cc1)=N[C@@H](CC(=O)OC(C)(C)C)c1nnc(C)n1-2 [NCGC00250412-19]  -13.5
13. CS(=O)(=O)c1ccc(C2=C(c3ccccc3)C(=O)OC2)cc1 + Cc1sc2c(c1C)C(c1ccc(Cl)cc1)=N[C@@H](CC(=O)OC(C)(C)C)c1nnc(C)n1-2 [NCGC00250412-19]  -19.4
14. CN(C)C(=O)COC(=O)Cc1ccc(OC(=O)c2ccc(NC(=N)N)cc2)cc1 + Cc1sc2c(c1C)C(c1ccc(Cl)cc1)=N[C@@H](CC(=O)OC(C)(C)C)c1nnc(C)n1-2 [NCGC00250412-19]  -37.3
15. COc1cc(OC)c(OC)cc1C=O + Cc1sc2c(c1C)C(c1ccc(Cl)cc1)=N[C@@H](CC(=O)OC(C)(C)C)c1nnc(C)n1-2 [NCGC00250412-19]  -51
16. CNCC[C@H](Oc1cccc2ccccc12)c1cccs1 + Cc1sc2c(c1C)C(c1ccc(Cl)cc1)=N[C@@H](CC(=O)OC(C)(C)C)c1nnc(C)n1-2 [NCGC00250412-19]  -51.3
17. N#CC(=C(/N)Sc1ccccc1N)/C(C#N)=C(/N)Sc1ccccc1N + Cc1sc2c(c1C)C(c1ccc(Cl)cc1)=N[C@@H](CC(=O)OC(C)(C)C)c1nnc(C)n1-2 [NCGC00250412-19]  -54.6
18. CN1CCN(CCOc2cc(OC3CCOCC3)c3c(Nc4c(Cl)ccc5c4OCO5)ncnc3c2)CC1 + Cc1sc2c(c1C)C(c1ccc(Cl)cc1)=N[C@@H](CC(=O)OC(C)(C)C)c1nnc(C)n1-2 [NCGC00250412-19]  -56.9
19. CCN(C)C(=O)Oc1cccc([C@H](C)N(C)C)c1 + Cc1sc2c(c1C)C(c1ccc(Cl)cc1)=N[C@@H](CC(=O)OC(C)(C)C)c1nnc(C)n1-2 [NCGC00250412-19]  -74.4
20. CN(C)c1ccc2nc3ccc(=[N+](C)C)cc-3sc2c1 + Cc1sc2c(c1C)C(c1ccc(Cl)cc1)=N[C@@H](CC(=O)OC(C)(C)C)c1nnc(C)n1-2 [NCGC00250412-19]  -82.1
21. CCC1(c2ccc(N)cc2)CCC(=O)NC1=O (centres undefined) + Cc1sc2c(c1C)C(c1ccc(Cl)cc1)=N[C@@H](CC(=O)OC(C)(C)C)c1nnc(C)n1-2 [NCGC00250412-19]  -82.4
22. C[C@@H](Oc1cc(-n2cnc3ccc(CN4CCN(C)CC4)cc32)sc1C(N)=O)c1ccccc1C(F)(F)F + Cc1sc2c(c1C)C(c1ccc(Cl)cc1)=N[C@@H](CC(=O)OC(C)(C)C)c1nnc(C)n1-2 [NCGC00250412-19]  -89.4
23. CN(C(=O)c1ccc(F)cc1C(F)(F)F)C1CCN(c2nnc(-c3ccnn3C)c3ccccc23)CC1 + Cc1sc2c(c1C)C(c1ccc(Cl)cc1)=N[C@@H](CC(=O)OC(C)(C)C)c1nnc(C)n1-2 [NCGC00250412-19]  -103
24. C[Se]CCC(N)C(=O)O (centres undefined) + Cc1sc2c(c1C)C(c1ccc(Cl)cc1)=N[C@@H](CC(=O)OC(C)(C)C)c1nnc(C)n1-2 [NCGC00250412-19]  -104
25. CCc1nc(-c2cccc(C)c2)c(-c2ccnc(NC(=O)c3ccccc3)c2)s1 + Cc1sc2c(c1C)C(c1ccc(Cl)cc1)=N[C@@H](CC(=O)OC(C)(C)C)c1nnc(C)n1-2 [NCGC00250412-19]  -106
26. CC(C)[C@H](CO)Nc1nc(Nc2cccc(Cl)c2)c2ncn(C(C)C)c2n1 + Cc1sc2c(c1C)C(c1ccc(Cl)cc1)=N[C@@H](CC(=O)OC(C)(C)C)c1nnc(C)n1-2 [NCGC00250412-19]  -111
27. COc1ccc(C[C@@H](C)[C@@H](C)Cc2ccc(OC)c(OC)c2)cc1OC + Cc1sc2c(c1C)C(c1ccc(Cl)cc1)=N[C@@H](CC(=O)OC(C)(C)C)c1nnc(C)n1-2 [NCGC00250412-19]  -111
28. CN(C1CCc2c(c3ccccc3n2CC(=O)O)C1)S(=O)(=O)c1ccc(F)cc1 (centres undefined) + Cc1sc2c(c1C)C(c1ccc(Cl)cc1)=N[C@@H](CC(=O)OC(C)(C)C)c1nnc(C)n1-2 [NCGC00250412-19]  -115
29. CC1(COc2ccc3c(c2)ncn3-c2ccc3cccc(N4CCC(N)CC4)c3n2)COC1 + Cc1sc2c(c1C)C(c1ccc(Cl)cc1)=N[C@@H](CC(=O)OC(C)(C)C)c1nnc(C)n1-2 [NCGC00250412-19]  -117
30. CCCNC(=O)[C@H]1O[C@@H]1C(=O)N[C@H](C(=O)N1CCC[C@H]1C(=O)OC)[C@@H](C)CC + Cc1sc2c(c1C)C(c1ccc(Cl)cc1)=N[C@@H](CC(=O)OC(C)(C)C)c1nnc(C)n1-2 [NCGC00250412-19]  -117
31. N#CC(=Cc1ccc(O)c(O)c1)C(=O)NCc1ccccc1 + Cc1sc2c(c1C)C(c1ccc(Cl)cc1)=N[C@@H](CC(=O)OC(C)(C)C)c1nnc(C)n1-2 [NCGC00250412-19]  -130
32. COc1cc(C)c(Sc2cnc(NC(=O)c3ccc(CNC(C)C(C)C)cc3)s2)cc1C(=O)N1CCN(C(C)=O)CC1 (centres undefined) + Cc1sc2c(c1C)C(c1ccc(Cl)cc1)=N[C@@H](CC(=O)OC(C)(C)C)c1nnc(C)n1-2 [NCGC00250412-19]  -144
33. N=C(N)NC(=O)c1nc(Cl)c(N)nc1N + Cc1sc2c(c1C)C(c1ccc(Cl)cc1)=N[C@@H](CC(=O)OC(C)(C)C)c1nnc(C)n1-2 [NCGC00250412-19]  -160
34. CCCCCCCCCCCCCCCC(=O)O[C@@H]1[C@@H](O)[C@@H](O)[C@@H]([C@H](NC(=O)[C@@H]2C[C@@H](CCC)CN2C)[C@H](C)Cl)O[C@@H]1SC + Cc1sc2c(c1C)C(c1ccc(Cl)cc1)=N[C@@H](CC(=O)OC(C)(C)C)c1nnc(C)n1-2 [NCGC00250412-19]  -179
35. CC1Cc2ccccc2N1NC(=O)c1ccc(Cl)c(S(N)(=O)=O)c1 (centres undefined) + Cc1sc2c(c1C)C(c1ccc(Cl)cc1)=N[C@@H](CC(=O)OC(C)(C)C)c1nnc(C)n1-2 [NCGC00250412-19]  -188
36. C=C[C@H]1CN2CC[C@H]1C[C@@H]2[C@@H](O)c1ccnc2ccc(OC)cc12 + Cc1sc2c(c1C)C(c1ccc(Cl)cc1)=N[C@@H](CC(=O)OC(C)(C)C)c1nnc(C)n1-2 [NCGC00250412-19]  -219
37. NS(=O)(=O)c1cccc2c1C(=O)c1cccc(O)c1C2=O + Cc1sc2c(c1C)C(c1ccc(Cl)cc1)=N[C@@H](CC(=O)OC(C)(C)C)c1nnc(C)n1-2 [NCGC00250412-19]  -234
38. CC[C@@]1([C@@H]2O[C@@H]([C@H]3O[C@@](O)(CO)[C@H](C)C[C@@H]3C)C[C@@H]2C)CC[C@H]([C@]2(C)CC[C@]3(C[C@H](O)[C@@H](C)[C@@H]([C@@H](C)[C@@H](OC)[C@H](C)C(=O)O)O3)O2)O1 + Cc1sc2c(c1C)C(c1ccc(Cl)cc1)=N[C@@H](CC(=O)OC(C)(C)C)c1nnc(C)n1-2 [NCGC00250412-19]  -273
39. C[C@@]12C(=O)OC(=O)[C@]1(C)[C@H]1CC[C@@H]2O1 + Cc1sc2c(c1C)C(c1ccc(Cl)cc1)=N[C@@H](CC(=O)OC(C)(C)C)c1nnc(C)n1-2 [NCGC00250412-19]  -274
